# Laboratory results from the supplement of paper PMC8728848.
# The list shows a part of the results.
# B1: MFG-E8 (Mus musculus), P21956 (protein)
# chain: MQVSRVLAALCGMLLCASGLFAASGDFCDSSLCLNGGTCLTGQDNDIYCLCPEGFTGLVCNETERGPCSPNPCYNDAKCLVTLDTQRGDIFTEYICQCPVGYSGIHCETETNYYNLDGEYMFTTAVPNTAVPTPAPTPDLSNNLASRCSTQLGMEGGAIADSQISASSVYMGFMGLQRWGPELARLYRTGIVNAWTASNYDSKPWIQVNLLRKMRVSGVMTQGASRAGRAEYLKTFKVAYSLDGRKFEFIQDESGGDKEFLGNLDNNSLKVNMFNPTLEAQYIKLYPVSCHRGCTLRFELLGCELHGCSEPLGLKNNTIPDSQMSASSSYKTWNLRAFGWYPHLGRLDNQGKINAWTAQSNSAKEWLQVDLGTQRQVTGIITQGARDFGHIQYVASYKVAHSDDGVQWTVYEEQGSSKVFQGNLDNNSHKKNIFEKPFMARYVRVLPVSWHNRITLRLELLGC
# What was measured:
# Experiment in all cases: glycan array binding signal (z-score within array); higher = stronger binding
# Conditions in all cases: glycan notation: IUPAC condensed, linker removed
# [1] = molecular target: Gal(b1-4)GlcNAc(b1-3)Gal(b1-4)GlcNAc(b1-3)Gal(b1-4)GlcNAc(b1-3)Gal(b1-4)GlcNAc(b1-3)Gal(b1-4)GlcNAc(b1-2)Man(a1-3)[Gal(b1-4)GlcNAc(b1-3)Gal(b1-4)GlcNAc(b1-3)Gal(b1-4)GlcNAc(b1-3)Gal(b1-4)GlcNAc(b1-3)Gal(b1-4)GlcNAc(b1-2)Man(a1-6)]Man(b1-4)GlcNAc(b1-4)GlcNAc
# Summary of the method: (§1)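 The Consortium for Functional Glycomics database supplied 3228 glycan arrays, of which those lacking an available protein sequence were dropped. The binding signal, a within-array Z-score, was averaged across arrays of the same protein sequence and across linkers. Negative scores can be read as non-binding.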
# [2] = molecular target: Gal(b1-4)GlcNAc(b1-3)Gal(b1-4)GlcNAc(b1-3)Gal(b1-4)GlcNAc(b1-3)Gal(b1-4)GlcNAc(b1-3)Gal(b1-4)GlcNAc(b1-2)Man(a1-3)[Gal(b1-4)GlcNAc(b1-3)Gal(b1-4)GlcNAc(b1-3)Gal(b1-4)GlcNAc(b1-3)Gal(b1-4)GlcNAc(b1-3)Gal(b1-4)GlcNAc(b1-2)Man(a1-6)]Man(b1-4)GlcNAc(b1-4)[Fuc(a1-6)]GlcNAc
# Summary of the method: as §1
# [3] = molecular target: Gal(b1-4)GlcNAc(b1-3)Gal(b1-4)GlcNAc(b1-3)Gal(b1-4)GlcNAc(b1-3)Gal(b1-4)GlcNAc(b1-3)Gal(b1-4)GlcNAc(b1-2)[Gal(b1-4)GlcNAc(b1-3)Gal(b1-4)GlcNAc(b1-3)Gal(b1-4)GlcNAc(b1-3)Gal(b1-4)GlcNAc(b1-3)Gal(b1-4)GlcNAc(b1-6)]Man(a1-6)[Gal(b1-4)GlcNAc(b1-3)Gal(b1-4)GlcNAc(b1-3)Gal(b1-4)GlcNAc(b1-3)Gal(b1-4)GlcNAc(b1-3)Gal(b1-4)GlcNAc(b1-2)Man(a1-3)]Man(b1-4)GlcNAc(b1-4)[Fuc(a1-6)]GlcNAc
# Summary of the method: as §1
# [4] = molecular target: Gal(b1-4)GlcNAc(b1-3)Gal(b1-4)GlcNAc(b1-3)Gal(b1-4)GlcNAc(b1-3)Gal(b1-4)GlcNAc(b1-3)Gal(b1-4)GlcNAc(b1-3)Gal(b1-4)GlcNAc(b1-2)Man(a1-3)[Gal(b1-4)GlcNAc(b1-3)Gal(b1-4)GlcNAc(b1-3)Gal(b1-4)GlcNAc(b1-3)Gal(b1-4)GlcNAc(b1-3)Gal(b1-4)GlcNAc(b1-3)Gal(b1-4)GlcNAc(b1-2)Man(a1-6)]Man(b1-4)GlcNAc(b1-4)GlcNAc
# Summary of the method: as §1
# [5] = molecular target: Gal(b1-4)GlcNAc(b1-3)Gal(b1-4)GlcNAc(b1-3)GalNAc
# Summary of the method: as §1
# [6] = molecular target: Gal(b1-4)GlcNAc(b1-3)Gal(b1-4)GlcNAc(b1-3)[Gal(b1-4)GlcNAc(b1-3)Gal(b1-4)GlcNAc(b1-6)]GalNAc
# Summary of the method: as §1
# [7] = molecular target: Gal(b1-4)GlcNAc(b1-3)Gal(b1-4)GlcNAc(b1-6)[Gal(b1-3)]GalNAc
# Summary of the method: as §1
# [8] = molecular target: Gal(b1-4)GlcNAc(b1-3)Gal(b1-4)[Fuc(a1-3)GlcNAc(b1-6)]Gal(b1-4)Glc
# Summary of the method: as §1
# [9] = molecular target: Gal(b1-4)GlcNAc(b1-3)Gal(b1-4)[Fuc(a1-3)]GlcNAc(b1-3)Gal(b1-4)[Fuc(a1-3)]GlcNAc
# Summary of the method: as §1
# [10] = molecular target: Gal(b1-4)GlcNAc(b1-3)GalNAc
# Summary of the method: as §1
# [11] = molecular target: Gal(b1-4)GlcNAc(b1-3)[Fuc(a1-3)GlcNAc(b1-6)]Gal(b1-4)Glc
# Summary of the method: as §1
# [12] = molecular target: Gal(b1-4)GlcNAc(b1-3)[Gal(b1-4)GlcNAc(b1-6)]Gal(b1-4)GlcNAc
# Summary of the method: as §1
# [13] = molecular target: Gal(b1-4)GlcNAc(b1-3)[Gal(b1-4)GlcNAc(b1-6)]GalNAc
# Summary of the method: as §1
# [14] = molecular target: Gal(b1-4)GlcNAc(b1-3)[GlcNAc(b1-6)]Gal(b1-4)GlcNAc
# Summary of the method: as §1
# [15] = molecular target: Gal(b1-4)GlcNAc(b1-6)Gal(b1-4)GlcNAc
# Summary of the method: as §1
# [16] = molecular target: Gal(b1-4)GlcNAc(b1-6)GalNAc
# Summary of the method: as §1
# [17] = molecular target: Gal(b1-4)GlcNAc(b1-6)[Gal(b1-3)]GalNAc
# Summary of the method: as §1
# [18] = molecular target: Gal(b1-4)GlcNAc(b1-6)[Gal(b1-4)GlcNAc(b1-3)]GalNAc
# Summary of the method: as §1
# Gal(b1-4)GlcNAc6P = molecular target: Gal(b1-4)GlcNAc6P
# Summary of the method: as §1
# Gal(b1-6)Gal = molecular target: Gal(b1-6)Gal
# Summary of the method: as §1
# Gal3S(b1-3)GalNAc = molecular target: Gal3S(b1-3)GalNAc
# Summary of the method: as §1
# Gal3S(b1-3)GlcNAc = molecular target: Gal3S(b1-3)GlcNAc
# Summary of the method: as §1
# [19] = molecular target: Gal3S(b1-3)[Fuc(a1-4)]GlcNAc
# Summary of the method: as §1
# Gal3S(b1-4)Glc = molecular target: Gal3S(b1-4)Glc
# Summary of the method: as §1
# Gal3S(b1-4)Glc6S = molecular target: Gal3S(b1-4)Glc6S
# Summary of the method: as §1
# Gal3S(b1-4)GlcNAc = molecular target: Gal3S(b1-4)GlcNAc
# Summary of the method: as §1
# Gal3S(b1-4)GlcNAc6S = molecular target: Gal3S(b1-4)GlcNAc6S
# Summary of the method: as §1
# [20] = molecular target: Gal3S(b1-4)[Fuc(a1-3)]Glc
# Summary of the method: as §1
# [21] = molecular target: Gal3S(b1-4)[Fuc(a1-3)]Glc6S
# Summary of the method: as §1
# [22] = molecular target: Gal3S(b1-4)[Fuc(a1-3)]GlcNAc
# Summary of the method: as §1
# [23] = molecular target: Gal3S(b1-4)[Fuc(a1-3)]GlcNAc6S
# Summary of the method: as §1
# Gal3S4S(b1-4)GlcNAc = molecular target: Gal3S4S(b1-4)GlcNAc
# Summary of the method: as §1
# Gal3S6S(b1-4)GlcNAc = molecular target: Gal3S6S(b1-4)GlcNAc
# Summary of the method: as §1
# Gal3S6S(b1-4)GlcNAc6S = molecular target: Gal3S6S(b1-4)GlcNAc6S
# Summary of the method: as §1
# Gal4S(b1-4)GlcNAc = molecular target: Gal4S(b1-4)GlcNAc
# Summary of the method: as §1
# Gal4S6S(b1-4)GlcNAc = molecular target: Gal4S6S(b1-4)GlcNAc
# Summary of the method: as §1
# Gal6P(b1-4)GlcNAc = molecular target: Gal6P(b1-4)GlcNAc
# Summary of the method: as §1
# Gal6S(b1-3)GlcNAc = molecular target: Gal6S(b1-3)GlcNAc
# Summary of the method: as §1
binder,measurement,setting,value
B1,glycan array binding signal (z-score),[1],-0.313
same,glycan array binding signal (z-score),[2],0.485
same,glycan array binding signal (z-score),[3],-0.342
same,glycan array binding signal (z-score),[4],-0.636
same,glycan array binding signal (z-score),[5],1.43
same,glycan array binding signal (z-score),[6],0.32
same,glycan array binding signal (z-score),[7],-0.243
same,glycan array binding signal (z-score),[8],0.944
same,glycan array binding signal (z-score),[9],-0.16
same,glycan array binding signal (z-score),[10],-0.613
same,glycan array binding signal (z-score),[11],-0.543
same,glycan array binding signal (z-score),[12],0.308
same,glycan array binding signal (z-score),[13],0.578
same,glycan array binding signal (z-score),[14],-0.605
same,glycan array binding signal (z-score),[15],-0.115
same,glycan array binding signal (z-score),[16],0.24
same,glycan array binding signal (z-score),[17],-0.422
same,glycan array binding signal (z-score),[18],-0.419
same,glycan array binding signal (z-score),Gal(b1-4)GlcNAc6P,0.187
same,glycan array binding signal (z-score),Gal(b1-6)Gal,1.1
same,glycan array binding signal (z-score),Gal3S(b1-3)GalNAc,-0.932
same,glycan array binding signal (z-score),Gal3S(b1-3)GlcNAc,-0.17
same,glycan array binding signal (z-score),[19],0.267
same,glycan array binding signal (z-score),Gal3S(b1-4)Glc,-0.159
same,glycan array binding signal (z-score),Gal3S(b1-4)Glc6S,0.198
same,glycan array binding signal (z-score),Gal3S(b1-4)GlcNAc,-0.46
same,glycan array binding signal (z-score),Gal3S(b1-4)GlcNAc6S,-0.639
same,glycan array binding signal (z-score),[20],-0.908
same,glycan array binding signal (z-score),[21],0.661
same,glycan array binding signal (z-score),[22],0.745
same,glycan array binding signal (z-score),[23],1.86
same,glycan array binding signal (z-score),Gal3S4S(b1-4)GlcNAc,1.21
same,glycan array binding signal (z-score),Gal3S6S(b1-4)GlcNAc,1.75
same,glycan array binding signal (z-score),Gal3S6S(b1-4)GlcNAc6S,2.81
same,glycan array binding signal (z-score),Gal4S(b1-4)GlcNAc,-0.4
same,glycan array binding signal (z-score),Gal4S6S(b1-4)GlcNAc,1.29
same,glycan array binding signal (z-score),Gal6P(b1-4)GlcNAc,1.22
same,glycan array binding signal (z-score),Gal6S(b1-3)GlcNAc,0.37

# A different layout for some results above:
binder | measurement | setting | value
B1 | glycan array binding signal (z-score) | [14] | -0.605
same | glycan array binding signal (z-score) | [15] | -0.115
